Measurements as given in patent US20120202747A1.

Assays:
[1] = biological target: DH (dehydrase) domain of FAS tagged with FLAG at the N terminus; test: co-immunoprecipitation in HEK293T cells, anti-FLAG and anti-HA antibodies
[2] = biological target: TE (thioesterase) domain of FAS tagged with FLAG at the N terminus; test: as above
[3] = biological target: MAT (malonyl/acetyl transferase) domain of FAS tagged with FLAG at the N terminus; test: as above
[4] = biological target: ER (enoylreductase) domain of FAS tagged with FLAG at the N terminus; test: as above
[5] = biological target: FAS (fatty acid synthase) fused with a FLAG-tag; test: immunoprecipitation, FIG. 14
[6] = biological target: FAS (fatty acid synthase) fused with a FLAG-tag; test: co-immunoprecipitation from co-expressing HEK293T cells with an anti-FLAG antibody or an anti-HA antibody
[7] = biological target: FAS (fatty acid synthase) fused with a FLAG-tag; test: co-immunoprecipitation in HEK293T cells, FIG. 33B
[8] = biological target: FAS (fatty acid synthase) fused with a FLAG-tag; test: co-immunoprecipitation in HEK293T cells, FIG. 33A
[9] = biological target: FAS (fatty acid synthase) fused with a FLAG-tag; test: co-immunoprecipitation from lysate of co-expressing HEK293T cells with an anti-FLAG antibody
[10] = substrate: CC (central core) region of FAS tagged with FLAG at the N terminus; test: co-immunoprecipitation in HEK293T cells, anti-FLAG and anti-HA antibodies

B1: mouse AIM (apoptosis inhibitor of macrophage) fused with an HA-tag (protein, not shown: small tags and cut ends)
chain: ESPTKVQLVGGAHRCEGRVEVEHNGQWGTVCDDGWDRRDVAVVCRELNCGAVIQTPRGASYQPPASEQRVLIQGVDCNGTEDTLAQCELNYYVFDCSHEEDAGAQCENPDSDLLFIPEDVRLVDGPGHCQGRVEVLHQSQWSTVCKAGWNLQVSKVVCRQLGCGRALLTYGSCNKNTQGKGPIWMGKMSCSGQEANLRSCLLSRLENNCTHGEDTWMECEDPFELKLVGGDTPCSGRLEVLHKGSWGSVCDDNWGEKEDQVVCKQLGCGKSLHPSPKTRKIYGPGAGRIWLDDVNCSGKEQSLEFCRHRLWGYHDCTHKEDVEVICTDFDV
B1 was tested, and the binding [1] was “binds”, the binding [2] was “binds” and the binding [3] was “no binding”. The binding [4] was “binds”, the binding [5] was “binds” and the binding [6] was “binds”. The binding [7] was “binds”, the binding [8] was “binds” and the binding [9] was “binds”. For the same binder, the binding [10] was “binds”.

Results are given in words; binding and its absence hold for the method and conditions named. For some of these results: Binding calls can cover weak binding; strength is not graded here. Tags and fused reporters may be left off the sequences shown. For some of these results: In cells and extracts the contact can be indirect.
